Taken from: PubChem BioAssay AID1159593 (NIAID, 2016)

- Purpose: 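Knock-downs that alter LPS-induced nuclear entry of p65 in mouse macrophages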
- System: RAW264.7 macrophages of mouse, with reporters for p65 (GFP) and the Tnf promoter (mCherry)
- Knock-down reagent: single siRNA against mouse genes
- Duration: 48 to 72 hours after siRNA transfection, then LPS for 40 min
- Treatment: LPS (Salmonella minnesota R595) for 40 min before fixation; dose not given
- Measured: 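Imaged nuclear over cytoplasmic GFP-p65 intensity after 40 min LPS, normalised per plate by median and MAD, robust z-score versus negative controls, mean of replicates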
- Direction: p65 translocation z-score: higher = more nuclear NF-kappaB p65 after LPS
- Call rule: 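z scored in tiers by size in both directions (1, 1.5, 2, 2.5); stated active cut-off missing, but called actives lie near absolute z 1.5 or above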
- Meaning of the calls: active = changed p65 translocation (either direction); inactive = no clear change
In all, the deposit lists 756 reagents; this is a random part of them. 137 of all reagents (18%) count as active. 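Active means p65 translocation went either up or down; genes were judged on the median of six siRNAs, not single siRNAs.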 Unmarked entries are inactive. The numbers tell different reagents against one gene apart. Not stated in the record: the amount of reagent.

| target gene | siRNA no. | p65 translocation z-score |
| --- | --- | --- |
| Rac1 | 1 | 1.77 (active) |
| Rac1 | 2 | 0.227 |
| Rac1 | 3 | -2.31 (active) |
| Rac1 | 4 | -0.151 |
| Rac1 | 5 | -0.762 |
| Rac1 | 6 | -1.3 |
| Cxcl9 | 1 | -0.554 |
| Cxcl9 | 2 | -0.935 |
| Cxcl9 | 3 | -0.328 |
| Cxcl9 | 4 | -0.818 |
| Cxcl9 | 5 | -0.725 |
| Cxcl9 | 6 | -0.415 |
| Ifnar1 | 1 | -1.43 |
| Ifnar1 | 2 | 0.417 |
| Ifnar1 | 3 | -1.36 |
| Ifnar1 | 4 | 1.14 |
| Ifnar1 | 5 | -0.0953 |
| Ifnar1 | 6 | -0.842 |
| Tlr4 | 1 | -0.302 |
| Tlr4 | 2 | -2.06 (active) |
| Tlr4 | 3 | -3.15 (active) |
| Tlr4 | 4 | -3.36 (active) |
| Tlr4 | 5 | -1.54 (active) |
| Tlr4 | 6 | -4.14 (active) |
| Mapk12 | 1 | 0.165 |
| Mapk12 | 2 | -0.507 |
| Mapk12 | 3 | -0.799 |
| Mapk12 | 4 | -0.498 |
| Mapk12 | 5 | -0.776 |
| Mapk12 | 6 | -0.555 |
| Tlr9 | 1 | -1.19 |
| Tlr9 | 2 | -0.77 |
| Tlr9 | 3 | -0.293 |
| Tlr9 | 4 | -0.739 |
| Tlr9 | 5 | 0.541 |
| Tlr9 | 6 | -0.164 |
